Experimental data as given in patent US20050127321A1, “Compositions containing lactone compatibilizers” (priority 2003, published 2005).

How the values were obtained:
[1] = tested on: New Zealand White rabbits; assay: Acute skin irritation/corrosive potential, scored on the Draize scale; type: in vivo; conditions: 0.5 mL undiluted, approximately 4 hours exposure, semi-occlusive, evaluated up to 72 hours
Method: Compositions of the present invention were evaluated for acute skin irritation/corrosive potential in New Zealand White rabbits. An aliquot of 0.5 mL of undiluted compatibilizer was administered to a localized site on the backs of the animals. The test sites were covered with a semi-oclusive dressing to ensure contact between the skin and the test substance. The animals were exposed to the test substances for approximately 4 hours. The test sites were evaluated for erythrema, edema, and other evidence of dermal effects for up to 72 hours following the removal of the test substance. Observed dermal effects were scored according to the Draize scale. The reversibility of dermal effects was assessed for up to 14 days, as necessary.

[2] = Phase separation temperature of compatibilizer / Zerol 150 alkylbenzene oil / R134a mixtures (cloud point on cooling); type: physicochemical
Method: The phase separation temperatures for lactone compatibilizers of the present invention when combined with Zerol® 150 alkylbenzene oil were determined. […] The glass tube was sealed at one end, and the other end was sealed to a Teflon® vacuum valve stopcock. This entire apparatus was tared, and was attached at valve E to a high vacuum line capable of achieving 10^−4 to 10^−5 torr (See FIG. 1). The pressure was measured by a mercury manometer, F. All five valves, A, B, C, D and E were attached to the manifold via greased ground-glass joints. Valve A joined the manifold to the source of refrigerant. Valve B joined a flask comprising fluorocarbon refrigerant, once loaded into the manifold. Valve C joined a 125.5 mL calibrated vessel to the manifold. And valve D joined a 5 mm OD in leg glass tube 150 mm in length containing oil and compatibilizer.
The glass tube, refrigerant container, and calibrated volume were evacuated by opening valve B, C, D, and E, and keeping valve A closed. After vacuum was achieved, Valve D and E were closed. […]
The phase separation temperature of the mixture was determined by manually shaking the contents of the glass tube while cooling the mixture by one degree Centigrade intervals until a cloudpoint/phase separation was visually observed. […]

[3] = Kinematic viscosity of lactone compatibilizers; type: physicochemical; conditions: at 40° C.

In the case of `CCCCCCCC1CCC(=O)O1` (stereo not drawn) [gamma-undecalactone], the Classification [1] is reported as “Not a skin irritant”, the “Phase Separation Temperature” value [2] is reported as −6 deg C and the kinematic viscosity [3] is reported as 5.4 centistokes.
